Source: PubChem BioAssay AID1259405 (NCATS, 2018)
This is an unselected part of about 50,000 reagents tested. Of all reagents, about 4,000 (8%) got an active call. 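Mouse siRNA library applied to hamster cells; one well for each siRNA.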 The numbers tell different reagents against one gene apart. Reagent sequences are not shown.

Assay: 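Silenced genes that increase secreted GFP made by CHO cells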 (primary screen)
Cell system: Chinese hamster CHO-K1 ovary cells with stable secreted eGFP expression
Reagents: single siRNA against mouse genes, 0.8 pmol siRNA per well (2 µl of 400 nM stock)
Time to read-out: 3 days
Detection: 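Percent of the per-plate non-targeting control median for intracellular GFP per well by laser scanning cytometry and for cell viability by ATP luminescence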
Scale: GFP, % of control: higher = more GFP per well, higher productivity; viability (ATP), % of control: higher = more viable cells (more ATP)
Call rule: 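Called active when intracellular GFP, relative to negative control, is at or above 120%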

gene | reagent | GFP, % of control | viability (ATP), % of control | call
Nat8 (GeneID 68396) | 1 | 80.7 | 88.9 | inactive
Nat8 (GeneID 68396) | 2 | 104 | 53.2 | inactive
Mustn1 (GeneID 66175) | 1 | 59.4 | 46.8 | inactive
Mustn1 (GeneID 66175) | 2 | 70 | 63.4 | inactive
Mustn1 (GeneID 66175) | 3 | 55 | 61.9 | inactive
H2az1 (GeneID 51788) | 1 | 45.3 | 44.6 | inactive
H2az1 (GeneID 51788) | 2 | 53.4 | 80.5 | inactive
H2az1 (GeneID 51788) | 3 | 69.5 | 59.9 | inactive
Col4a3 (GeneID 12828) | 1 | 66.6 | 93.9 | inactive
Col4a3 (GeneID 12828) | 2 | 114 | 80.9 | inactive
Col4a3 (GeneID 12828) | 3 | 64.5 | 95.5 | inactive
Vapb (GeneID 56491) | 1 | 111 | 116 | inactive
Vapb (GeneID 56491) | 2 | 77.4 | 98.9 | inactive
Or4c109 (GeneID 258899) | 1 | 73.6 | 82.4 | inactive
Or4c109 (GeneID 258899) | 2 | 65.4 | 86.7 | inactive
Or4c109 (GeneID 258899) | 3 | 66.9 | 72.4 | inactive
Timeless (GeneID 21853) | 1 | 38.1 | 26 | inactive
Timeless (GeneID 21853) | 2 | 64.7 | 72.1 | inactive
Timeless (GeneID 21853) | 3 | 107 | 85.8 | inactive
Rnaset2b (GeneID 68195) | 1 | 97.1 | 99.1 | inactive
Rnaset2b (GeneID 68195) | 2 | 131 | 49.9 | active
Rnaset2b (GeneID 68195) | 3 | 105 | 92.2 | inactive
Defb19 (GeneID 246700) | 1 | 66.5 | 79.1 | inactive
Defb19 (GeneID 246700) | 2 | 215 | 86.2 | active
Defb19 (GeneID 246700) | 3 | 29.9 | 92.1 | inactive
Smarcc1 (GeneID 20588) | 1 | 58.3 | 75.7 | inactive
Smarcc1 (GeneID 20588) | 2 | 72.5 | 92.1 | inactive
Hinfp (GeneID 102423) | 1 | 109 | 113 | inactive
Hinfp (GeneID 102423) | 2 | 81.5 | 55.4 | inactive
Clec4a3 (GeneID 73149) | 1 | 40.9 | 33.8 | inactive
Clec4a3 (GeneID 73149) | 2 | 112 | 78.1 | inactive
Clec4a3 (GeneID 73149) | 3 | 64.5 | 56.8 | inactive
Phf8l (GeneID 74042) | 1 | 103 | 92.3 | inactive
Phf8l (GeneID 74042) | 2 | 67.6 | 53.1 | inactive
Phf8l (GeneID 74042) | 3 | 79 | 64 | inactive
Clmn (GeneID 94040) | 1 | 54.7 | 71.5 | inactive
Clmn (GeneID 94040) | 2 | 73.4 | 65.4 | inactive
Clmn (GeneID 94040) | 3 | 111 | 111 | inactive
Fzd6 (GeneID 14368) | 1 | 67.4 | 79.9 | inactive
Fzd6 (GeneID 14368) | 2 | 50.6 | 56.8 | inactive
Rasl10a (GeneID 75668) | 1 | 69 | 57 | inactive
Rasl10a (GeneID 75668) | 2 | 56.1 | 60.7 | inactive
Rasl10a (GeneID 75668) | 3 | 80.5 | 81.3 | inactive
Epsti1 (GeneID 108670) | 1 | 54.9 | 52.2 | inactive
Epsti1 (GeneID 108670) | 2 | 43.1 | 44.5 | inactive
Epsti1 (GeneID 108670) | 3 | 52 | 105 | inactive
Nufip2 (GeneID 68564) | 1 | 78.9 | 79.2 | inactive
Nufip2 (GeneID 68564) | 2 | 63.2 | 80.4 | inactive
Nufip2 (GeneID 68564) | 3 | 57.5 | 59 | inactive
Eif1b (GeneID 68969) | 1 | 69.5 | 46.9 | inactive
Eif1b (GeneID 68969) | 2 | 48.2 | 39.5 | inactive
Eif1b (GeneID 68969) | 3 | 86.2 | 84.7 | inactive
F11 (GeneID 109821) | 1 | 82.1 | 105 | inactive
F11 (GeneID 109821) | 2 | 108 | 71.2 | inactive
F11 (GeneID 109821) | 3 | 55.3 | 36.3 | inactive
Dlx2 (GeneID 13392) | 1 | 61.9 | 54.2 | inactive
Dlx2 (GeneID 13392) | 2 | 92.6 | 102 | inactive
Dlx2 (GeneID 13392) | 3 | 58.4 | 69.9 | inactive
Msantd2 (GeneID 235184) | 1 | 120 | 122 | inactive
Msantd2 (GeneID 235184) | 2 | 56.9 | 69.5 | inactive
Msantd2 (GeneID 235184) | 3 | 141 | 128 | active
Ubtd1 (GeneID 226122) | 1 | 24.6 | 40.9 | inactive
Ubtd1 (GeneID 226122) | 2 | 62.2 | 55.5 | inactive
Ubtd1 (GeneID 226122) | 3 | 50.6 | 90.5 | inactive
A630001O12Rik (GeneID 414091) | 1 | 101 | 87.4 | inactive
A630001O12Rik (GeneID 414091) | 2 | 40.7 | 51.5 | inactive
A630001O12Rik (GeneID 414091) | 3 | 79 | 87.2 | inactive
Rab38 (GeneID 72433) | 1 | 102 | 112 | inactive
Rab38 (GeneID 72433) | 2 | 112 | 84.3 | inactive
Rab38 (GeneID 72433) | 3 | 72.5 | 72.5 | inactive
Trim8 (GeneID 93679) | 1 | 79 | 114 | inactive
Trim8 (GeneID 93679) | 2 | 105 | 95.1 | inactive
Trim8 (GeneID 93679) | 3 | 112 | 134 | inactive
Drosha (GeneID 14000) | 1 | 117 | 94.9 | inactive
Drosha (GeneID 14000) | 2 | 99.3 | 85.1 | inactive
Drosha (GeneID 14000) | 3 | 70.8 | 77.5 | inactive
Or2y1b (GeneID 18307) | 1 | 74 | 71.5 | inactive
Or2y1b (GeneID 18307) | 2 | 107 | 85.3 | inactive
Or2y1b (GeneID 18307) | 3 | 85.4 | 60.3 | inactive
Bloc1s5 (GeneID 17828) | 1 | 72.3 | 44.2 | inactive
Bloc1s5 (GeneID 17828) | 2 | 108 | 92.8 | inactive
Dcaf12 (GeneID 68970) | 1 | 109 | 96.7 | inactive
Dcaf12 (GeneID 68970) | 2 | 112 | 78.4 | inactive
Dcaf12 (GeneID 68970) | 3 | 94.7 | 106 | inactive
Zfp628 (GeneID 232816) | 1 | 59.1 | 58.4 | inactive
Zfp628 (GeneID 232816) | 2 | 93.2 | 88.1 | inactive
Zfp628 (GeneID 232816) | 3 | 86.4 | 92.6 | inactive
Tspan8 (GeneID 216350) | 1 | 114 | 80.3 | inactive
Tspan8 (GeneID 216350) | 2 | 49.1 | 58.1 | inactive
Tspan8 (GeneID 216350) | 3 | 76 | 79.1 | inactive
Dpep1 (GeneID 13479) | 1 | 61.9 | 72.7 | inactive
Dpep1 (GeneID 13479) | 2 | 77 | 71 | inactive
Dpep1 (GeneID 13479) | 3 | 29.1 | 60 | inactive
Pcbp1 (GeneID 23983) | 1 | 66.1 | 78.3 | inactive
Pcbp1 (GeneID 23983) | 2 | 143 | 133 | active
AY358078 (GeneID 278676) | 1 | 185 | 67.5 | active
AY358078 (GeneID 278676) | 2 | 85.9 | 70.2 | inactive
AY358078 (GeneID 278676) | 3 | 67.5 | 87.3 | inactive
Acer1 (GeneID 171168) | 1 | 113 | 99 | inactive
Acer1 (GeneID 171168) | 2 | 125 | 65.8 | active
Acer1 (GeneID 171168) | 3 | 46 | 68.4 | inactive
Trcg1 (GeneID 541610) | 1 | 62.1 | 64 | inactive
Trcg1 (GeneID 541610) | 2 | 69.6 | 53 | inactive
Trcg1 (GeneID 541610) | 3 | 73.3 | 50.1 | inactive
Slc25a20 (GeneID 57279) | 1 | 62.6 | 74.7 | inactive
Slc25a20 (GeneID 57279) | 2 | 106 | 72.2 | inactive
Slc25a20 (GeneID 57279) | 3 | 75.9 | 64.3 | inactive
